PubChem BioAssay AID1053208 | Peter MacCallum Cancer Centre, 2014

Screen: 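Genes whose silencing cuts survival of bone tumour cells only with doxorubicin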 (primary screen)
Cell system: mouse osteosarcoma cells, early-passage culture from an engineered mouse model of fibroblastic bone tumour
Reagents: siRNA pool against mouse genes, 40 nM
Timing: about 120 h (48 h before drug, then 72 h with drug)
Treatment: doxorubicin 100 nM for 72 h, roughly 30-40% inhibitory dose
Measured: 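Viability read as ATP luminescence after 72 h of 100 nM doxorubicin or none, duplicate wells averaged, scaled to non-targeting siRNA, then expressed as robust z-scores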
Direction: viability z-score with doxorubicin and doxorubicin viability vs non-targeting: higher = more viable cells under doxorubicin; viability z-score without drug: higher = more viable cells with knock-down alone; z-score of drug to no-drug ratio: higher = less drug sensitisation by knock-down
Hit rule: 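Called active if knock-down leaves viability unchanged without drug (z within -2 to 2) but lowers it with doxorubicin (z at or under -2)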
Here is an unselected part of about 17,000 reagents tested. Over the whole deposit, 788 (4.7%) were called active. 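Calls rest on z-score classes alone; an extra cut-off of viability at most 70% of control was not applied to them.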 Reagent sequences are not shown.

target gene	combined z-score class	viability z-score with doxorubicin	viability z-score without drug	z-score of drug to no-drug ratio	doxorubicin viability vs non-targeting	Call
Or5d46	no change with or without drug	0.9	-1.18	2.02	1.02	inactive
Casp12	low cell count with doxorubicin only	-2.14	-0.17	-2.02	0.75	active
Lrrc58	no change with or without drug	-1.46	-0.17	-1.35	0.81	inactive
Atp5mk	no change with or without drug	-1.57	-0.17	-1.46	0.8	inactive
Gm4814	no change with or without drug	-1.12	-0.17	-1.01	0.84	inactive
Thap1	high cell count with doxorubicin only	3.71	1.52	2.7	1.27	inactive
Nudt16l2	no change with or without drug	0	1.18	-0.67	0.94	inactive
Ptprt	no change with or without drug	1.01	0.51	0.79	1.03	inactive
Usp42	no change with or without drug	0.11	-0.84	0.9	0.95	inactive
Tuba4a	no change with or without drug	0.22	-0.84	1.01	0.96	inactive
Me3	no change with or without drug	-0.22	-0.51	0.22	0.92	inactive
Ubap2	no change with or without drug	-0.45	-0.51	0	0.9	inactive
Ccr7	no change with or without drug	-0.45	0.51	-0.67	0.9	inactive
Aldoc	no change with or without drug	0.67	-0.67	1.35	1	inactive
Foxa2	no change with or without drug	-0.9	1.35	-1.69	0.86	inactive
Map1s	no change with or without drug	0.45	-0.17	0.67	0.98	inactive
Hus1b	no change with or without drug	-0.56	-1.18	0.34	0.89	inactive
Ssr1	no change with or without drug	-0.45	-1.01	0.34	0.9	inactive
Or4c106	no change with or without drug	-0.45	0	-0.34	0.9	inactive

Continued, starting with the last 4 of the part before.
target gene	combined z-score class	viability z-score with doxorubicin	viability z-score without drug	z-score of drug to no-drug ratio	doxorubicin viability vs non-targeting	Call
Map1s	no change with or without drug	0.45	-0.17	0.67	0.98	inactive
Hus1b	no change with or without drug	-0.56	-1.18	0.34	0.89	inactive
Ssr1	no change with or without drug	-0.45	-1.01	0.34	0.9	inactive
Or4c106	no change with or without drug	-0.45	0	-0.34	0.9	inactive
Cnst	low cell count without drug only	-0.22	-2.53	1.91	0.92	inactive
Hinfp	no change with or without drug	-1.8	-0.17	-1.69	0.78	inactive
Cyfip2	no change with or without drug	0.34	-0.51	0.79	0.97	inactive
Baiap2l2	no change with or without drug	0.45	0.17	0.45	0.98	inactive
Klk1	no change with or without drug	1.35	-0.17	1.69	1.06	inactive
Fkbp4	no change with or without drug	-1.46	-0.67	-1.01	0.81	inactive
Stk4	no change with or without drug	0.56	0.84	0.11	0.99	inactive
Nr1d1	no change with or without drug	0.22	0.67	-0.11	0.96	inactive
Sumo1	no change with or without drug	0.67	0.51	0.45	1	inactive
Epcam	no change with or without drug	-0.45	0.17	-0.45	0.9	inactive
Mageh1	high cell count without drug only	0.22	2.36	-1.12	0.96	inactive
Plxnb2	high cell count with doxorubicin only	3.26	1.85	2.02	1.23	inactive
C1s2	no change with or without drug	1.69	0.84	1.24	1.09	inactive
Or51h5	no change with or without drug	0.22	-0.17	0.45	0.96	inactive
Scoc	no change with or without drug	-0.22	0.84	-0.67	0.92	inactive
Zfp956	no change with or without drug	0.9	1.52	0	1.02	inactive
Sec11a	no change with or without drug	-1.35	0.17	-1.46	0.82	inactive
Fcgr1	no change with or without drug	-1.35	0.17	-1.46	0.82	inactive
Zbtb17	no change with or without drug	0	0.51	-0.22	0.94	inactive
Them7	no change with or without drug	0.67	-1.52	2.02	1	inactive
Cdc23	low cell count with doxorubicin only	-3.15	-0.34	-3.04	0.66	active
Crygn	no change with or without drug	0.34	0.67	0	0.97	inactive
Bgn	no change with or without drug	1.69	0.67	1.35	1.09	inactive
Nubp2	no change with or without drug	-0.56	-1.18	0.34	0.89	inactive
Ugt2b34	no change with or without drug	0.11	1.69	-0.9	0.95	inactive
Slc29a2	high cell count without drug only	1.46	2.36	0	1.07	inactive
G6pd2	no change with or without drug	0.9	1.01	0.34	1.02	inactive
Mab21l3	no change with or without drug	0.11	1.52	-0.79	0.95	inactive
Zfp281	no change with or without drug	-1.01	1.18	-1.69	0.85	inactive
Nit1	no change with or without drug	-0.22	0.51	-0.45	0.92	inactive
Pbk	no change with or without drug	1.8	0.34	1.69	1.1	inactive
